For one molecule, binding results are on record in patent JP2011097869A.

Protein sequences, listed by entry. Tags and fused reporters are not part of them. Residues count along the entry.
UniProt P29274, residues 1-316: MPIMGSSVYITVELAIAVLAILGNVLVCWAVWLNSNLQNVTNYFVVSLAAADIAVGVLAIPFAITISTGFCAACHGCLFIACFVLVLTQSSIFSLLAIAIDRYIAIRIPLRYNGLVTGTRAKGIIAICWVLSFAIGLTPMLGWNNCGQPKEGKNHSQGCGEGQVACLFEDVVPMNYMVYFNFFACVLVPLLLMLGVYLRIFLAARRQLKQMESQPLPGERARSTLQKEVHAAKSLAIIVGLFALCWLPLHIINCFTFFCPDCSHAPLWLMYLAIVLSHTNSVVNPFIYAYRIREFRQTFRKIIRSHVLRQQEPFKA

These are yes or no findings as the source states them, for the method shown. Some binding calls cover weakened binding; strength is not graded here.

The assay concerns the target ヒト由来A2a受容体 (human adenosine A2a receptor, recombinantly expressed in methylotrophic yeast, purified preparation) (human) (UniProt P29274). Description: summary of Examples 2 and 3 (ELISA, SPR, ligand binding).

B1: C2831-104 (antibody, V domains shown)
VH: EVQLQQSGAELVKPGASAKISCKASGYSFTGYNMNWVKQSRGKSLEWIGNINSYFGSTNYNQKFKGKATLTVDKSSSTAYMQLNGLTSEDSAVYYCTREGNYYDGSYVRYFDYWGQGTTLTVSS
VL: DIQMTQSPASLSASVGETVTITCRASEDIYSSLAWYQQRQGKSPQLLVYATTHLADGVPSRFSGSGSGTQFSLKINSLQPEDFGNYYCQHFYGTTWTFGGGTRLEIKR
Turning to B1, the binding entry was “binds”.
